Record: PubChem BioAssay AID504774 (Drosophila RNAi Screening Center, 2011)

- Assay: 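Genes required for cells to withstand methyl methanesulphonate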 (primary screen)
- System: Drosophila Kc167 cells
- Reagents: long dsRNA against Drosophila genes, about 0.25 µg dsRNA per well
- Timing: about 6 days: 3 days knock-down, then 3 days with or without MMS
- Treatment: methyl methanesulphonate 0.004% (w/v) for 3 days after knock-down
- Measured: 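ATP-dependent luminescence as a measure of live cells in MMS-exposed wells, quantile normalised within each plate, with replicate values also given as a mean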
- Reading the numbers: mean viability with MMS and viability with MMS: higher = more surviving cells after MMS
The deposit covers about 23,000 reagents; below is a random part of those that have a named target and a result. 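Values are quantile-normalised luminescence on an arbitrary scale; higher means more cells surviving MMS.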 Names joined by + are all predicted targets of the reagent.

gene knocked down | DRSC id | mean viability with MMS | viability with MMS, replicate 1 | viability with MMS, replicate 2
CG7330 | DRSC10813 | 3.52e6 | 3.92e6 | 4.06e6
CG7330 | DRSC10814 | 3.41e6 | 3.85e6 | 3.83e6
Gr22b (Gustatory receptor 22b) | DRSC20911 | 2.22e6 | 3.96e6 | 3.94e6
CG15456 | DRSC20527 | 3.64e6 | 4.03e6 | 4.16e6
CG13334 | DRSC06369 | 3.47e6 | 4.09e6 | 3.87e6
CG8778 | DRSC07264 | 3.47e6 | 3.88e6 | 3.94e6
CG10413 | DRSC02052 | 3.60e6 | 3.89e6 | 4.31e6
Mat89Ba (Maternal transcript 89Ba) | DRSC14540 | 3.57e6 | 4.08e6 | 4.01e6
KP78a + KP78b | DRSC16721 | 3.66e6 | 4.12e6 | 4.09e6
KP78a + KP78b | DRSC16722 | 3.58e6 | 4.06e6 | 4.03e6
CG17385 | DRSC06664 | 3.75e6 | 3.89e6 | 4.82e6
CG13436 | DRSC06396 | 3.54e6 | 3.96e6 | 4.06e6
Cp36 (Chorion protein 36) | DRSC18452 | 3.55e6 | 4.06e6 | 3.99e6
CG10936 | DRSC05669 | 3.57e6 | 4.03e6 | 4.04e6
CG10936 | DRSC05670 | 3.67e6 | 4.20e6 | 4.08e6
CG10936 | DRSC06018 | 3.49e6 | 3.95e6 | 3.96e6
CG30380 | DRSC05069 | 3.49e6 | 3.92e6 | 3.97e6
pcs (parcas) | DRSC07042 | 3.16e6 | 3.69e6 | 3.62e6
CG14191 | DRSC19546 | 3.69e6 | 4.09e6 | 4.22e6
CG33159 | DRSC08199 | 1.73e6 | 3.89e6 | –
Lhr (Lethal hybrid rescue) | DRSC06759 | 3.60e6 | 4.07e6 | 4.11e6
Nfs1 (Nfs1 cysteine desulfurase) | DRSC02154 | 3.37e6 | 3.95e6 | 3.64e6
CG3168 | DRSC18287 | 3.03e6 | 3.84e6 | 3.98e6
mms4 (Methyl methanesulfonate sensitivity 4) | DRSC06249 | 3.45e6 | 3.99e6 | 3.86e6
SmydA-7 (SET and MYND domain containing, arthropod-specific, member 7) | DRSC07340 | 3.45e6 | 3.95e6 | 3.88e6
CG32037 | DRSC10363 | 3.76e6 | 4.17e6 | 4.25e6
CG8586 | DRSC07218 | 3.51e6 | 4.01e6 | 3.94e6
CG13847 | DRSC14697 | 2.96e6 | 3.60e6 | 3.63e6
CG13847 | DRSC23172 | 3.50e6 | 4.00e6 | 3.98e6
CG13615 | DRSC14618 | 3.58e6 | 4.03e6 | 4.09e6
nSMase (neutral sphingomyelinase) | DRSC08237 | 3.81e6 | 4.27e6 | 4.40e6
Con (Connectin) | DRSC08652 | 3.39e6 | 3.89e6 | 3.84e6
CR14117 (pseudo) | DRSC10121 | 3.54e6 | 4.06e6 | 3.98e6
CG32713 | DRSC22766 | 3.52e6 | 3.96e6 | 4.04e6
CG3032 | DRSC18266 | 3.49e6 | 3.96e6 | 3.96e6
CG34408 | DRSC17733 | 3.43e6 | 4.35e6 | 3.92e6
CG34408 | DRSC21926 | 2.99e6 | 3.79e6 | 3.79e6
CG34408 | DRSC23056 | 3.49e6 | 4.05e6 | 3.91e6
CG11883 | DRSC06094 | 3.46e6 | 3.88e6 | 3.93e6
Usp15-31 (Ubiquitin specific protease 15/31) | DRSC04426 | 3.24e6 | 2.68e6 | 4.02e6
Usp15-31 (Ubiquitin specific protease 15/31) | DRSC04532 | 2.92e6 | 3.52e6 | 3.44e6
CG42514 | DRSC10428 | 3.43e6 | 3.87e6 | 3.88e6
CG14421 | DRSC17918 | 3.53e6 | 3.86e6 | 4.15e6
bru3 (bruno 3) | DRSC09280 | 3.46e6 | 3.79e6 | 4.08e6
bru3 (bruno 3) | DRSC09687 | 3.47e6 | 3.76e6 | 4.11e6
bru3 (bruno 3) | DRSC09887 | 3.50e6 | 3.91e6 | 4.02e6
bru3 (bruno 3) | DRSC22732 | 3.47e6 | 3.98e6 | 3.95e6
COX7C (Cytochrome c oxidase subunit 7C) | DRSC06831 | 3.56e6 | 4.06e6 | 4.03e6
CG8012 | DRSC10951 | 3.39e6 | 3.80e6 | 3.86e6
CG42322 | DRSC15112 | 3.62e6 | 4.09e6 | 4.10e6
CG42322 | DRSC15113 | 3.40e6 | 3.74e6 | 4.01e6
CG42322 | DRSC15114 | 3.21e6 | 3.66e6 | 3.74e6
CG31638 | DRSC02269 | 3.31e6 | 3.79e6 | 3.63e6
CG31638 | DRSC03259 | 3.41e6 | 3.88e6 | 3.82e6
Or85e (retired record) | DRSC16768 | 3.42e6 | 3.79e6 | 3.98e6
CG14820 | DRSC10191 | 3.58e6 | 4.06e6 | 4.08e6
CG17029 | DRSC10240 | 3.67e6 | 4.15e6 | 4.12e6
CG7333 | DRSC16229 | 3.76e6 | 4.02e6 | 4.52e6
CG14142 | DRSC10145 | 3.58e6 | 4.05e6 | 4.04e6
rl (rolled) | DRSC07833 | 3.55e6 | 4.05e6 | 3.99e6
rl (rolled) | DRSC20742 | 3.40e6 | 3.84e6 | 3.87e6
rl (rolled) | DRSC21814 | 3.46e6 | 3.96e6 | 3.93e6
CG10809 | DRSC09802 | 3.77e6 | 4.18e6 | 4.27e6
wry (weary) | DRSC00352 | 3.36e6 | 3.78e6 | 3.77e6
wry (weary) | DRSC00456 | 3.26e6 | 3.66e6 | 3.67e6
wry (weary) | DRSC22414 | 3.59e6 | 4.02e6 | 4.07e6
Cap-G (Chromosome associated protein G) | DRSC06652 | 3.51e6 | 3.86e6 | 3.95e6
Cap-G (Chromosome associated protein G) | DRSC06653 | 3.50e6 | 3.79e6 | 3.98e6
Cap-G (Chromosome associated protein G) | DRSC21805 | 2.97e6 | 3.68e6 | 3.68e6
CG31954 | DRSC00580 | 3.64e6 | 4.21e6 | 4.08e6
PGAP5 (Post-GPI attachment to proteins 5) | DRSC03089 | 3.53e6 | 4.01e6 | 4.01e6
CG31161 | DRSC16144 | 3.50e6 | 4.08e6 | 3.83e6
CG11030 | DRSC02120 | 3.48e6 | 3.84e6 | 4.05e6
CG4409 | DRSC06869 | 3.52e6 | 3.96e6 | 4.02e6
Task6 (TWIK-related acid-sensitive K[+] channel 6) | DRSC16530 | 3.70e6 | 4.22e6 | 4.18e6
CG8388 | DRSC07157 | 3.50e6 | 3.92e6 | 4.01e6
mRpL12 (mitochondrial ribosomal protein L12) | DRSC10467 | 3.61e6 | 4.13e6 | 4.06e6
RhoGAP18B (Rho GTPase activating protein at 18B) | DRSC19763 | 3.66e6 | 4.17e6 | 4.07e6
RhoGAP18B (Rho GTPase activating protein at 18B) | DRSC20047 | 3.57e6 | 4.12e6 | 3.97e6
RhoGAP18B (Rho GTPase activating protein at 18B) | DRSC20048 | 3.55e6 | 4.04e6 | 4.02e6
RhoGAP18B (Rho GTPase activating protein at 18B) | DRSC20049 | 3.43e6 | 3.94e6 | 3.84e6
Cyp9c1 (Cytochrome P450 9c1) | DRSC04607 | 3.72e6 | 4.23e6 | 4.11e6
CG13308 | DRSC09979 | 3.59e6 | 4.06e6 | 4.09e6
AP-1mu (Adaptor Protein complex 1, mu subunit) | DRSC14089 | 3.50e6 | 4.03e6 | 3.89e6
CG10307 | DRSC04057 | 3.36e6 | 3.69e6 | 3.69e6
CG5004 | DRSC19929 | 3.48e6 | 3.92e6 | 3.95e6
CG5004 | DRSC19930 | 3.42e6 | 3.90e6 | 3.81e6
CG5004 | DRSC20123 | 3.23e6 | 3.63e6 | 3.55e6

Records listed so far whose gene name begins with K or k (2):
gene knocked down | DRSC id | mean viability with MMS | viability with MMS, replicate 1 | viability with MMS, replicate 2
KP78a + KP78b | DRSC16721 | 3.66e6 | 4.12e6 | 4.09e6
KP78a + KP78b | DRSC16722 | 3.58e6 | 4.06e6 | 4.03e6
